Measurements published in US20240343817A1 (STAIDSON BEIJING BIOPHARMACEUTICALS, published 2024).
Residue numbers refer to the chain shown, from its start. Results are given in words; binding and its absence hold for the method and conditions named. Some entries that bind do so weakly or less than the wild type. Each block holds one binder with its values, some of them ahead of it.

Protein sequences, listed by entry. Tags and fused reporters are not part of them. Lines headed by an entry give the natural chain unless they say otherwise; changes in a name come on top. Chains listed by the source or under a name are the forms on record and can include a tag or linker.
Rhesus monkey CD40 extracellular domain (recombinant) (F6SNI1, form named): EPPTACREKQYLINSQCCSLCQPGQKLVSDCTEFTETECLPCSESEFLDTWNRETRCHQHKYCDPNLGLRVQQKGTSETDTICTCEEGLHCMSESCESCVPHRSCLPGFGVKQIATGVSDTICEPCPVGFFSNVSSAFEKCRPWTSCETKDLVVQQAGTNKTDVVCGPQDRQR
UniProt P25942: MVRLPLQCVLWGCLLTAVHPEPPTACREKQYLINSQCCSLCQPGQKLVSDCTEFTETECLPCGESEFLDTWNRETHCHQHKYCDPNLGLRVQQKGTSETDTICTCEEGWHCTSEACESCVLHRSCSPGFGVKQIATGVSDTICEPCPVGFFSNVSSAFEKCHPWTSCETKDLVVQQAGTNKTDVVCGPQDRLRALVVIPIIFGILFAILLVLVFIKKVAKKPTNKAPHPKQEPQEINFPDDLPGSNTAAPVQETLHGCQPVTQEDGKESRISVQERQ

Columns and labels:
[1] = molecular target: Rhesus monkey CD40 extracellular domain (recombinant) (Rhesus monkey) (UniProt F6SNI1); experiment: ELISA on coated CD40 extracellular domain
[2] = molecular target: Rhesus monkey CD40 extracellular domain (recombinant) (Rhesus monkey) (UniProt F6SNI1); experiment: ELISA on coated CD40 extracellular domain; antibody as human IgG4
[3] = molecular target: Rhesus monkey CD40 extracellular domain (recombinant) (Rhesus monkey) (UniProt F6SNI1); experiment: ELISA, plate coated with recombinant rhesus monkey CD40 extracellular domain, antibody (human IgG4 format) in serial dilution, anti-human IgG-HRP, OD450
[4] = molecular target: human CD40 extracellular domain (recombinant) (human) (UniProt P25942); experiment: ELISA, plate coated with recombinant human CD40 extracellular domain, antibody (human IgG4 format) in serial dilution, anti-human IgG-HRP, OD450
[5] = molecular target: human CD40 extracellular domain (recombinant) (human) (UniProt P25942); experiment: ELISA on coated CD40 extracellular domain; antibody as human IgG4
[6] = molecular target: human CD40 extracellular domain (recombinant) (human) (UniProt P25942); experiment: SPR, Biacore 8K

B1: D1 (antibody, V domains shown)
VH: EVQLQQSGPDLVKPGASMKISCKASVYSFTGYTVNWVKQSHGKSLEWIGLINPYNGGTTYNQKFKGKATLTIDKSSTTAYMELLSLTSEDSAVYYCASSYYSNPYAMDYWGQGTSVTVSS
VL: DIVLNQSQKFMSTSVGDRVSITCKASQNVHTAVAWYQQKPGQSPKALIYLASDRRTGIPDRFTGSGSGTDFTLTIDNVQSEDLADYFCLQHWNYPLTFGAGTKLELK
notes: Full-length chimeric antibody: mouse variable domains with a human IgG1 or IgG4 heavy chain constant domain and a human kappa light chain constant domain; also called anti-CD40 antibody D1; mouse antibody D1
binding [1]: binds

B6: D2 (antibody, V domains shown)
VH: EVHVKQSGAELVKPGASVKLSCTASGFNIKDAYMHWVKQRPEQGLEWIGRIDPANGNTKYDPKFQGKASITTDTSSNTAYLQLSSLTSEDTAVYYCTPNYYGSRYPFAYWGQGTTVTVSS
VL: DIVLTQSPAIMSASPGEKVSITCSASSSVSYMHWFQQKPGTSPKLWIYSTSNLASGVPARFSGSGSGTSYSLTISRMEADDAATYYCQQGSSYPLTFGAGTKLELK
notes: Full-length chimeric antibody: mouse variable domains with a human IgG1 or IgG4 heavy chain constant domain and a human kappa light chain constant domain; also called anti-CD40 antibody D2
binding [1]: binds

B7: D7 (antibody, V domains shown)
VH: QIQLLQSGAELVKPGASVKLSCTASGFNIKDAYMHWVKQRPEQGLEWIGRIDPANGYTKSDPKFQGKATITSDTSSNTAYLQLSSLTSEDTAVYYCAPNYYGSRYPFAYWGQGTLVTVSS
VL: B6 VL with D1Q, S20T, L45I, S49F, D80E, S92T
notes: Full-length chimeric antibody: mouse variable domains with a human IgG1 or IgG4 heavy chain constant domain and a human kappa light chain constant domain; also called anti-CD40 antibody D7
binding [1]: binds

B8: D3 (antibody, V domains shown)
VH: B6 VH with H3Q, V4L, K5Q, A32S, S69T, T72A, T97V, S103A, R104A
VL: B6 VL with T5I, S20T, L45V, S62G, D80E
notes: Full-length chimeric antibody: mouse variable domains with a human IgG1 or IgG4 heavy chain constant domain and a human kappa light chain constant domain; also called anti-CD40 antibody D3
binding [1]: binds

Now from value to binder:

binding [2]: binds
binding [3]: binds
B2: D33 (antibody, human IgG4, V domains shown)
VH: QVQLVQSGAEVKKPGASVKVSCKASVYSFTGYTVNWVRQAPGQRLEWMGLINPLNGGTTYNQKFKGRVTLTIDKSASTAYMELSSLRSEDTAVYYCASSYYSTPYAMDYWGQGTLVTVSS
VL: EIVMTQSPATLSVSPGERATLSCKASQNVHTRVAWYQQKPGQAPRLLIYLASDRRTGIPARFSGSGSGTEFTLTISSLQSEDFAVYYCLQHWNYPLTFGQGTKVEIK
notes: also called optimized anti-CD40 antibody D33

binding [4]: binds
binding [2]: binds
binding [5]: binds
binding [6]: binds
binding [3]: binds
B3: D42 (antibody, V domains shown)
VH: B2 VH with N52V, L54Y, Y100R, T103N
VL: B2 VL
notes: also called optimized anti-CD40 antibody D42

binding [2]: binds
binding [3]: binds
B4: D47 (antibody, human IgG4, V domains shown)
VH: B2 VH with L54Y, N55T, T103N, M107S
VL: B2 VL with N93T
notes: also called optimized anti-CD40 antibody D47

binding [2]: binds
binding [3]: binds
B5: D49 (antibody, human IgG4, V domains shown)
VH: B2 VH with L54Y, T59S, Y100P, T103N
VL: B2 VL with N93T
notes: also called optimized anti-CD40 antibody D49
